Data as given in PubChem BioAssay AID1671195 (Yale University, 2021)

Aim: 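Genes whose knockdown alters LDL uptake in liver cancer cells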 (primary screen)
System: human Huh7 hepatoma cells
Reagent: siRNA pool against human genes, 18 nM
Time to read-out: about 2 to 2.5 days of knockdown, then 8 h LDL uptake
Conditions: DiI-labelled LDL at 30 µg/ml for 8 h, in lipoprotein-deficient serum medium
Read-out: 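Per-cell DiI-LDL intensity by automated imaging; well means scaled to the plate median and given as a robust z-score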
Direction: robust z-score: higher = more LDL uptake after knockdown
Call rule: 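a gene counts as active if at least two replicate z-scores exceed ±2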
This is a random part of about 22,000 deposited reagents. About 1,510 of all reagents (6.9%) count as active. 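Active includes knockdowns raising or lowering LDL uptake; positive z-scores mean more uptake, negative mean less.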 Unmarked entries are inactive.

For CDO1 (cysteine dioxygenase type 1), how do the results read?
robust z-score, replicate 1: -1.2; robust z-score, replicate 2: -1.18; robust z-score, replicate 3: -1.37

With LOC390930 (retired record), what was measured?
robust z-score, replicate 1: -1.4; robust z-score, replicate 2: -1.39; robust z-score, replicate 3: -1.33

For TMEM18 (transmembrane protein 18), how do the results read?
robust z-score, replicate 1: 0.158; robust z-score, replicate 2: 0.276; robust z-score, replicate 3: -0.473

How did the screen score CCAR2 (cell cycle and apoptosis regulator 2)?
robust z-score, replicate 1: -0.738; robust z-score, replicate 2: -0.658; robust z-score, replicate 3: 0.361

With ZNF484 (zinc finger protein 484), how do the results read?
robust z-score, replicate 1: 0.929; robust z-score, replicate 2: 1.06; robust z-score, replicate 3: 0.977

For PCDH8 (protocadherin 8), what does the deposit list?
robust z-score, replicate 1: 0.756; robust z-score, replicate 2: 0.229; robust z-score, replicate 3: 0.336

For FAM110B (family with sequence similarity 110 member B), what does the deposit list?
robust z-score, replicate 1: -0.748; robust z-score, replicate 2: -0.405; robust z-score, replicate 3: -1

For PLSCR4 (phospholipid scramblase 4), what does the deposit list?
robust z-score, replicate 1: -0.586; robust z-score, replicate 2: 0.44; robust z-score, replicate 3: 0.456

With TAL2 (TAL bHLH transcription factor 2), what does the deposit list?
robust z-score, replicate 1: -0.0863; robust z-score, replicate 2: -0.329; robust z-score, replicate 3: -0.434

What did the screen give for ACE (angiotensin I converting enzyme)?
robust z-score, replicate 1: -0.27; robust z-score, replicate 2: -1.03; robust z-score, replicate 3: -1.4

How did the screen score EVA1C (eva-1 homolog C)?
robust z-score, replicate 1: -0.962; robust z-score, replicate 2: -0.451; robust z-score, replicate 3: -0.752

How did the screen score SLC71A1?
robust z-score, replicate 1: -0.878; robust z-score, replicate 2: -0.795; robust z-score, replicate 3: -0.712

What is on record for SAT2 (spermidine/spermine N1-acetyltransferase family member 2)?
robust z-score, replicate 1: 0.69; robust z-score, replicate 2: -2.26; robust z-score, replicate 3: 1.59

With ACOXL-AS1 (ACOXL antisense RNA 1), how do the results read?
robust z-score, replicate 1: 0.403; robust z-score, replicate 2: -0.0915; robust z-score, replicate 3: 0.581

With GAB3 (GRB2 associated binding protein 3), what does the deposit list?
robust z-score, replicate 1: 1.22; robust z-score, replicate 2: -0.367; robust z-score, replicate 3: 1.01

What is on record for AMD1 (adenosylmethionine decarboxylase 1)?
robust z-score, replicate 1: 2.02 (active); robust z-score, replicate 2: 0.298; robust z-score, replicate 3: 1.91

With ANO8 (anoctamin 8), how do the results read?
robust z-score, replicate 1: -1.55; robust z-score, replicate 2: -1.32; robust z-score, replicate 3: -0.28

With TNNT3 (troponin T3, fast skeletal type), how do the results read?
robust z-score, replicate 1: -0.564; robust z-score, replicate 2: 0.432; robust z-score, replicate 3: -0.257

What is on record for LOC388798 (retired record)?
robust z-score, replicate 1: 0.557; robust z-score, replicate 2: -0.018; robust z-score, replicate 3: 0.0152

What did the screen give for NPHS2 (NPHS2 stomatin family member, podocin)?
robust z-score, replicate 1: 0.243; robust z-score, replicate 2: 1.37; robust z-score, replicate 3: 0.254

What did the screen give for DUOX1 (dual oxidase 1)?
robust z-score, replicate 1: 1.93 (active); robust z-score, replicate 2: 2.25; robust z-score, replicate 3: 1.64

How did the screen score GORASP1 (golgi reassembly stacking protein 1)?
robust z-score, replicate 1: 0.217; robust z-score, replicate 2: 0.152; robust z-score, replicate 3: 0.958

For C21orf91 (chromosome 21 open reading frame 91), how do the results read?
robust z-score, replicate 1: 1.1; robust z-score, replicate 2: 0.934; robust z-score, replicate 3: 1.46

Which result is listed for PKIA (cAMP-dependent protein kinase inhibitor alpha)?
robust z-score, replicate 1: -0.637; robust z-score, replicate 2: -1.7; robust z-score, replicate 3: -1.39

What is on record for SLC15A2?
robust z-score, replicate 1: 0.95; robust z-score, replicate 2: 0.543; robust z-score, replicate 3: 0.529

For KIAA0408, how do the results read?
robust z-score, replicate 1: 0.142; robust z-score, replicate 2: 1.83; robust z-score, replicate 3: 0.128

With RAPGEF3 (Rap guanine nucleotide exchange factor 3), how do the results read?
robust z-score, replicate 1: -1.22; robust z-score, replicate 2: -1.51; robust z-score, replicate 3: -1.46

How did the screen score LPCAT2 (lysophosphatidylcholine acyltransferase 2)?
robust z-score, replicate 1: -0.109; robust z-score, replicate 2: 0.499; robust z-score, replicate 3: 0.428

What did the screen give for TSLIG3A (tRNA splicing ligase complex subunit 3A)?
robust z-score, replicate 1: 1.1; robust z-score, replicate 2: 1.77; robust z-score, replicate 3: 0.993

What did the screen give for SLC2A3P2?
robust z-score, replicate 1: -1.58; robust z-score, replicate 2: -1.2; robust z-score, replicate 3: -1.11
